# Measurements taken from PubChem BioAssay AID1671190 (National Center for Advancing Translational Sciences (NCATS), 2021).
# By UniProt entry, the sequences of proteins in these tests, tags left out. Where a name states a change or a piece, a line headed by the entry shows the natural chain unless it says otherwise.
# UniProt P18054: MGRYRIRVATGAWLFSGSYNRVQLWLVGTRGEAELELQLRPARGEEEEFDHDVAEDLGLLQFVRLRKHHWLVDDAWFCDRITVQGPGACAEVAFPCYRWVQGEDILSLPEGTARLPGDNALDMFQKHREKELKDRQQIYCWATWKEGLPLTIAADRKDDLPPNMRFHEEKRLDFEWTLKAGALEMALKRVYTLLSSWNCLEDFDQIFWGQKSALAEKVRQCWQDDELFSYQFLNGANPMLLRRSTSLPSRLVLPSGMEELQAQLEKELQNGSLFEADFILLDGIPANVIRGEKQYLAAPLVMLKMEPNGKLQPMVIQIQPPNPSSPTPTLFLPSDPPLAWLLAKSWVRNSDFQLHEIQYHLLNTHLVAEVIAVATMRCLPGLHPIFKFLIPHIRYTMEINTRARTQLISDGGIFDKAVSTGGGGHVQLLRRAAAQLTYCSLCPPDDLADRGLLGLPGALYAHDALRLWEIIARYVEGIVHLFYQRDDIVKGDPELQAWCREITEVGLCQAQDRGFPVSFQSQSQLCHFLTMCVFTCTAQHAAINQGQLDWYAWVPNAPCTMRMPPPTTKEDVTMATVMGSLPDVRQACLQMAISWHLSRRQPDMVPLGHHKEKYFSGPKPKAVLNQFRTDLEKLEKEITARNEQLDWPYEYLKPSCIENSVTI
# About 6,100 (1.1%) of roughly 580,000 compounds were called active. This list was built around the results that the source calls inconclusive (neither active nor inactive); the mix of calls is not that of the screen. Calls come from the whole dose curve; as a rule, active = well fitted inhibition curve with a large enough effect; inconclusive = small, poorly fitted or top-dose-only effect, or another doubt; inactive = no such curve, though single readings can be large or run the other way. Potencies beside an inconclusive call are fits to weak or partial responses and may not hold up.
# Biological target: Polyunsaturated fatty acid lipoxygenase ALOX12 (Homo sapiens) (UniProt P18054)
# Experiment: Primary qHTS assay for inhibitors of human arachidonate 12S-lipoxygenase (ALOX12): Round 2
# Details: purified 12hLO, xylenol orange hydroperoxide absorbance; activity change, negative = inhibition: at 108 µM (top of the series) unless noted
# Procedure, shortened: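 Hydroperoxide product was detected by ferrous iron/xylenol orange as the 573 to 405 nm absorbance ratio. Arachidonic acid at 40 uM (final) was turned over for 30 min at room temperature by 150 nM human 12hLO, pH 7.0 Hepes buffer, after 15 min compound preincubation.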
# % is set by controls: 0 for no effect and ±100 for the full control effect; potency is the fitted concentration of half-maximal effect.
Compound,Potency,"activity change, negative = inhibition"
COC(=O)C(Cc1ccc(O)cc1)NC(=O)c1ccccc1OC (stereo unspecified),"inconclusive: 31.6 µM [inhibitor, single point]",
CC(Oc1cccc2ccccc12)C(=O)NC1(C#N)CCCCC1 (stereo unspecified),,inactive: -27.8%
CCCCS(=O)(=O)N1CC(F)(F)C[C@H]1c1nnc(C)o1,"inconclusive: 10 µM [inhibitor, full curve, poor fit]",
O=C(C1=NN[C@@H]2C(=O)N(c3ccccc3C(F)(F)F)C(=O)[C@H]12)c1cnccn1,"inconclusive: 31.6 µM [inhibitor, partial curve, poor fit]",
O=C(c1ccncc1)N1CCCC1c1nc(CCOCC2CCCC2)no1 (stereo unspecified),,inactive: 49.3%
Cc1c(C(=O)NCc2ccc(C(F)(F)F)cc2)sc(=O)n1Cc1ccc(S(=O)(=O)N(C)C)cc1,,inactive: 14%
CCN1C/C(=C/c2sccc2C)c2nc3ccccc3c(C(=O)O)c2C1,"inconclusive: 44.7 µM [inhibitor, partial curve, poor fit]",
Cc1cc(C)cc(Oc2ccc(S(=O)(=O)N3CCN(C)CC3)cn2)c1,"inconclusive: 56.2 µM [inhibitor, partial curve, poor fit]",
Cn1c(=O)c2c(ncn2CC(COCc2ccccc2)OCc2ccccc2)n(C)c1=O (stereo unspecified),"inconclusive: 141 µM [inhibitor, single point]",
CC(NC1CCC2(CCNCC2)CC1)c1ccc(S(C)(=O)=O)cc1 (stereo unspecified),"inconclusive: 3.55 µM [inhibitor, full curve, poor fit]",
CC1(C)CC(=O)C2=C(C1)NC1=C(C(=O)c3ccccc31)C2c1ccc(Cl)cc1 (stereo unspecified),"inconclusive: 10 µM [inhibitor, full curve]",
CC(=O)NCCNc1cc(-c2ccccc2CN(C)C)ncn1,"inconclusive: 1.78 µM [inhibitor, full curve, poor fit]",
Cc1ccc(C(NC(=O)NC(C)c2ccccc2)C(Cl)(Cl)Cl)cc1F (stereo unspecified),,inactive: 1.41%
COC(=O)CCCC1=CC2=C(c3ccccc3)C(=O)C(C)(OC(=O)C3CCCC3)C(=O)C2=CN1C1CCCCC1 (stereo unspecified),"inconclusive: 39.8 µM [inhibitor, partial curve, poor fit]",
O=C(CCCN1C(=O)NC2(CCCC2)C1=O)Nc1cccc2cccnc12,,inactive: 9.57%
COc1ccc(-c2cc(-c3ccccc3)nc(SCC(=O)Nc3ccccc3F)c2C#N)cc1,,inactive: -2.63%
O=C(CCc1c[nH]c2ccccc12)N1CC=C(c2ccccc2)CC1,"inconclusive: 44.7 µM [inhibitor, partial curve, poor fit]",
CC(=O)N1CCN(c2cc3c(cc2F)c(=O)c(C(=O)O)cn3C2CC2)CC1,"inconclusive: 3.98 µM [inhibitor, full curve]",
S=C(Nc1ccc2c(c1)OCO2)Nc1ccccc1Cl,"inconclusive: 44.7 µM [inhibitor, partial curve, poor fit]",
COC(=O)C[C@@H]1C=C[C@H](NC(=O)c2cnccn2)[C@@H](CO)O1,"inconclusive: 10 µM [inhibitor, full curve, poor fit]",
COc1cc(OC)c(C2SCCN2S(=O)(=O)c2ccc3ccccc3c2)cc1OC (stereo unspecified),"inconclusive: 44.7 µM [inhibitor, partial curve, poor fit]",
Cc1cccc(NC(=O)c2sc3nc4c(c(-c5ccco5)c3c2N)CCC4)c1,"inconclusive: 12.6 µM [inhibitor, partial curve, poor fit]",

# Some of the entries so far, tab-delimited.
Compound	Potency	activity change, negative = inhibition
CC(Oc1cccc2ccccc12)C(=O)NC1(C#N)CCCCC1 (stereo unspecified)		inactive: -27.8%
COC(=O)CCCC1=CC2=C(c3ccccc3)C(=O)C(C)(OC(=O)C3CCCC3)C(=O)C2=CN1C1CCCCC1 (stereo unspecified)	inconclusive: 39.8 µM [inhibitor, partial curve, poor fit]	
CC(=O)N1CCN(c2cc3c(cc2F)c(=O)c(C(=O)O)cn3C2CC2)CC1	inconclusive: 3.98 µM [inhibitor, full curve]	

# Following part

Compound,Potency,"activity change, negative = inhibition"
Cc1ccc(-n2nc(C)c([C@H]3C=C[C@@H](O)C3)c2C)cc1Cl,"inconclusive: 112 µM [inhibitor, partial curve, poor fit]",
CCCN1C(=O)c2ccccc2NC1c1ccc(Cl)c(Cl)c1 (stereo unspecified),"inconclusive: 141 µM [inhibitor, single point]",
COc1ccc2[nH]cc(CCNc3ccnc(-c4cccc(C#N)c4)n3)c2c1,,inactive: -21.7%
Cc1nc(-c2cccc(-c3noc(C)n3)c2)no1,,inactive: -6.88%
CC(C)c1ccc(/C=C/C(=O)NC(=S)Nc2ccc(CN3CCOCC3)cc2)cc1,active: 39.8 µM,
Cc1onc(-c2ccccc2Cl)c1C(=O)N1CCN(c2ccccc2)CC1,,inactive: 2.11%
CCn1c(CN(C)C)nnc1C1CCN(Cc2cnc(N(C)C)s2)CC1,"inconclusive: 44.7 µM [inhibitor, partial curve]",
CC(C)CN(C)Cc1c(C(=O)N2CCc3ccccc3C2)nc2ccc(Cl)cn12,"inconclusive: 100 µM [inhibitor, single point]",
Clc1cccc(Cl)c1NC1=NCCN1,"inconclusive: 1.72 µM [inhibitor, full curve]",
Cc1ccc(-n2c(=S)[nH]c3nc4c(cc3c2=O)COC(C)(C)C4)cc1,,inactive: -10.7%
O=C(COC(=O)c1ccccn1)Nc1cc(Cl)ccc1Cl,"inconclusive: 35.5 µM [inhibitor, single point]",
Cc1cc(C)nc(Nc2ncc(O)n2-c2cccc(Cl)c2)n1,"inconclusive: 28.2 µM [inhibitor, partial curve, poor fit]",
COc1ccc(-c2noc(NCCc3ccc(Cl)cc3)n2)cc1,"inconclusive: 0.708 µM [inhibitor, partial curve, poor fit]",
CCn1c(-c2c[nH]c3ccccc23)n[nH]c1=S,"inconclusive: 63.1 µM [inhibitor, partial curve, poor fit]",
Cc1nn(-c2ccccc2)c(C)c1CN(C)S(=O)(=O)c1c(Cl)cccc1Cl,,inactive: 4.92%
O=C(NNc1ccccc1Br)C(=O)n1ccc2ccccc21,"inconclusive: 14.1 µM [inhibitor, partial curve, poor fit]",
N#CC(C#N)=C1c2cc(S(N)(=O)=O)ccc2-c2ccc(S(N)(=O)=O)cc21,,inactive: -23.4%
Cn1nc(C(=O)N(Cc2ccc(F)cc2)C2CC2)c2ccccc2c1=O,"inconclusive: 0.224 µM [inhibitor, full curve, poor fit]",
CC1CC(NC(=S)N(C)C)CC(C)(C)C1 (stereo unspecified),"inconclusive: 100 µM [inhibitor, partial curve, poor fit]",
CCNc1c(NC(=O)NCc2ccc(F)cc2)c(=O)oc2ccccc12,,inactive: -25.2%
COc1ccc(-c2cc(-c3nc(-c4ccccc4F)no3)[nH]n2)c(OC)c1,"inconclusive: 79.4 µM [inhibitor, partial curve, poor fit]",
CCCCCCn1c(-c2ccco2)nc2oc3cc(OC)ccc3c(=O)c2c1=O,"inconclusive: 44.7 µM [inhibitor, partial curve, poor fit]",

Compound,Potency,"activity change, negative = inhibition"
Cc1ccc(-c2nc(C(=O)NCc3ccccc3Cl)c3n2CCCCC3)cc1,"inconclusive: 39.8 µM [inhibitor, partial curve, poor fit]",
Cc1ccc(-c2nn(-c3ccccc3)cc2CO)cc1,,inactive: 230%
CCC(C)NCCCCOc1cc(C)cc(C(C)C)c1 (stereo unspecified),"inconclusive: 5.01 µM [inhibitor, full curve, poor fit]",
COc1cc(C2NC(=O)NC(C)=C2C(=O)OCc2ccc(C)cc2)cc(OC)c1OC (stereo unspecified),,inactive: 25.8%
COc1ccc(C2c3ccc(O)cc3Oc3ncn(CCCO)c(=N)c32)cc1OC (stereo unspecified),"inconclusive: 39.8 µM [inhibitor, single point]",
CCc1nnc(SCC(=O)Nc2ccc(N3CCOCC3)cc2)n1C,"inconclusive: 31.6 µM [inhibitor, partial curve, poor fit]",
CCc1cccc(NC(=O)c2ccc(NC(=O)N3CCSc4ncccc43)cc2)c1,"inconclusive: 44.7 µM [inhibitor, partial curve]",
CCCN1C(=O)/C(=C/c2cc(C)n(C)c2C)SC1=Nc1ccc(OC)cc1,"inconclusive: 44.7 µM [inhibitor, partial curve, poor fit]",
c1ccc(CN2CC(Oc3ccc4c(c3)OCO4)C2)cc1,"inconclusive: 44.7 µM [inhibitor, partial curve, poor fit]",
COc1ccc(C2c3cccn3CCN2S(=O)(=O)c2c(C)cc(C)cc2C)cc1OC (stereo unspecified),,inactive: -13.6%
CCOC(=O)c1nn(-c2ccc(Br)cc2)cc1C(=O)c1cccc2ccccc12,,inactive: -0.0373%
COCC(C)NCc1cccc([N+](=O)[O-])c1 (stereo unspecified),"inconclusive: 0.708 µM [inhibitor, full curve, poor fit]",
COc1ccc(C2C(C(C)=O)=C(O)C(=O)N2c2ccc(C)c(Br)c2)c(OC)c1 (stereo unspecified),"inconclusive: 100 µM [inhibitor, single point]",
CC(C)(C)CC(=O)N1CCN(CCc2ccccc2)CC1,,inactive: -3.99%
CN1C[C@@H](NC(=O)CC(C)(C)C)C[C@H]1c1nc(-c2ccc3c(c2)OCO3)no1,"inconclusive: 35.5 µM [inhibitor, full curve]",
COc1cccc(C(=O)Nc2ccc3oc(-c4cccc(Br)c4)nc3c2)c1,"inconclusive: 79.4 µM [inhibitor, partial curve, poor fit]",
Cc1ccc(S(=O)(=O)Nc2cc3c(cc2N2CCOCC2)n(C)c(=O)n3C)cc1,,inconclusive: -30.4% [inhibitor]
CCOC(=O)c1c(NC(=S)Nc2ccccc2)sc2c1CCN(C)C2,"inconclusive: 44.7 µM [inhibitor, partial curve, poor fit]",
O=C(Nc1ccc(-c2nc3ccccc3[nH]2)cc1)C1CCCN(Cc2ccn[nH]2)C1 (stereo unspecified),"inconclusive: 5.62 µM [inhibitor, full curve]",
Cc1cccc(NC(=O)C(Cc2ccccc2)NS(=O)(=O)c2ccc3c(c2)c(=O)n(C)c(=O)n3C)c1 (stereo unspecified),,inactive: -17.1%
CC(C)C(=O)N(Cc1cc2ccccc2[nH]c1=O)C(C)(C)C,,inactive: 0%
O=C(NCc1nnc(SCC(=O)N2CCCCCC2)o1)c1ccccc1F,"inconclusive: 5.01 µM [inhibitor, full curve, poor fit]",
